Earlier results, collected in patent US10329262B2, “Quinazolinone antibiotics” (priority 2013, dated 2019).
Some entries share one result that the patent states for a list of compounds.

conditions: marketed antibiotics; cited from earlier work

Compound	Plasma protein binding [%]
Cc1onc(-c2ccccc2)c1C(=O)N[C@@H]1C(=O)N2[C@@H]1SC(C)(C)[C@@H]2C(=O)O [oxacillin]	> 91
teicoplanin	> 91
CO[C@H]1/C=C/O[C@@]2(C)Oc3c(C)c(O)c4c(O)c(c(/C=N/N5CCN(C)CC5)c(O)c4c3C2=O)NC(=O)/C(C)=C\C=C\[C@H](C)[C@H](O)[C@@H](C)[C@@H](O)[C@@H](C)[C@H](OC(C)=O)[C@@H]1C [rifampicin]	> 91
